No constants are given. Whether binding was seen depends on the method and setting. Binding seen in cells or lysates may run through a third protein. Here binding means that the protein was enriched with, or labelled near, the bait; the list need not be complete.
Biological target: cTAGE5-EGFP fusion protein (knock-in, cTAGE5-EGFP-KI MEF cells) (mouse (endogenous in MEF))
Assay: affinity purification with mass spectrometry; co-IP with GFP antibody from cTAGE5-EGFP-KI MEF cell lysates, precipitated proteins identified by LC-MS/MS; IgG as control

binding: binds
B1: lamin B1 (LMNB1) (protein, UniProt P14733 1-588)
chain: MATATPVQQQRAGSRASAPATPLSPTRLSRLQEKEELRELNDRLAVYIDKVRSLETENSALQLQVTEREEVRGRELTGLKALYETELADARRALDDTARERAKLQIELGKFKAEHDQLLLNYAKKESDLSGAQIKLREYEAALNSKDAALATALGDKKSLEGDLEDLKDQIAQLEASLSAAKKQLADETLLKVDLENRCQSLTEDLEFRKNMYEEEINETRRKHETRLVEVDSGRQIEYEYKLAQALHEMREQHDAQVRLYKEELEQTYHAKLENARLSSEMNTSTVNSAREELMESRMRIESLSSQLSNLQKESRACLERIQELEDMLAKERDNSRRMLSDREREMAEIRDQMQQQLSDYEQLLDVKLALDMEISAYRKLLEGEEERLKLSPSPSSRVTVSRASSSRSVRTTRGKRKRVDVEESEASSSVSISHSASATGNVCIEEIDVDGKFIRLKNTSEQDQPMGGWEMIRKIGDTSVSYKYTSRYVLKAGQTVTVWAANAGVTASPPTDLIWKNQNSWGTGEDVKVILKNSQGEEVAQRSTVFKTTIPEEEEEEEEEPIGVAVEEERFHQQGAPRASNKSCAIM
